Common to all, as to test: EMSA
One data set addresses T1, FANCA (human) (UniProt O15360).
T1 sequence (looked up, limits assumed): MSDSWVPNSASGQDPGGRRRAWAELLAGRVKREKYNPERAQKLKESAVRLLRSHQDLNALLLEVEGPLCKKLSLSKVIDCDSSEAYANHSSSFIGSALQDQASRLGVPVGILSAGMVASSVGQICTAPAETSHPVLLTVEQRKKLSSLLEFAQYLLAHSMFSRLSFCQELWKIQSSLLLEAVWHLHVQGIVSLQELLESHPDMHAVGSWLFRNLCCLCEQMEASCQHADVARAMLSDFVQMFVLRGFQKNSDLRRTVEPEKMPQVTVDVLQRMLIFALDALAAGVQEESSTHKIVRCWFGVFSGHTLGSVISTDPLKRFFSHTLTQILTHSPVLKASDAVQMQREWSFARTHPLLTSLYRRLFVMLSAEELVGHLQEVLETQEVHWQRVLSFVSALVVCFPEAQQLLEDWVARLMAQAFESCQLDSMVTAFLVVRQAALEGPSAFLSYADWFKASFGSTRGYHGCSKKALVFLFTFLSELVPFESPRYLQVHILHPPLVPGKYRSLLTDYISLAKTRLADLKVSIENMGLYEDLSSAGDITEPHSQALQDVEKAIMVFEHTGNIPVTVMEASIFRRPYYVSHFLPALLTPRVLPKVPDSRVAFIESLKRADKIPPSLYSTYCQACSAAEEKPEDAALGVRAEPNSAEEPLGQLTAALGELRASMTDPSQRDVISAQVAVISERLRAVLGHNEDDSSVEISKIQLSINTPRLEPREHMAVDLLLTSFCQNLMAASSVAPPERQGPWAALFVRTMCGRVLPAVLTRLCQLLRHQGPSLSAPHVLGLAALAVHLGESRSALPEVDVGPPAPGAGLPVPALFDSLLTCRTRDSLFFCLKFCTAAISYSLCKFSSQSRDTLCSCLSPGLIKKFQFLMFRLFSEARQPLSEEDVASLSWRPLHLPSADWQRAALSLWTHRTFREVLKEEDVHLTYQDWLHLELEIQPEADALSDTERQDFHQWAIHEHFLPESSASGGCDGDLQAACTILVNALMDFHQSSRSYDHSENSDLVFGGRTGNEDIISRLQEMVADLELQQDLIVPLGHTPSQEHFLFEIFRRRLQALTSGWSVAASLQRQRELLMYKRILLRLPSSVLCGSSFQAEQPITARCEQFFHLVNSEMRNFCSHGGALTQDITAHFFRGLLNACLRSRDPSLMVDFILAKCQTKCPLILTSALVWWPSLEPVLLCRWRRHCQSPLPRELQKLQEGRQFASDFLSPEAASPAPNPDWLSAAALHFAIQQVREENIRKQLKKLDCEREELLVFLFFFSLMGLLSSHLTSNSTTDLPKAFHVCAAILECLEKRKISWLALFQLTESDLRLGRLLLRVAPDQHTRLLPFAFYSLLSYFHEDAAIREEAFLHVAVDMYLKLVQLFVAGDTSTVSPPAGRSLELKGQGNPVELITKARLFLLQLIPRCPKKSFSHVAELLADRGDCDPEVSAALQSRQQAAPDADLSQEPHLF
Conditions: EMSA: 125 mM Tris pH 7.5, 5 mM EDTA, 6% glycerol, 1 mM DTT, 100 mM NaCl, 1 nM substrate, RT 45 min, 4% native PAGE in 1x TAE, recombinant protein, label: 32P 5' (T4 PNK).

Another data set concerns FANCA + FANCG. Particulars: 10 nM each; EMSA: 125 mM Tris pH 7.5, 5 mM EDTA, 6% glycerol, 1 mM DTT, 100 mM NaCl, 1 nM substrate, RT 45 min; 4% native PAGE in 1x TAE; recombinant protein; label: 32P 5' (T4 PNK).
The test system of another data set is FANCA + FAAP20 + FANCG. Conditions: 10 nM each, no synergy; EMSA: 125 mM Tris pH 7.5, 5 mM EDTA, 6% glycerol, 1 mM DTT, 100 mM NaCl, 1 nM substrate, RT 45 min; 4% native PAGE in 1x TAE; recombinant protein; label: 32P 5' (T4 PNK).

For at least one entry, the source does not settle the construct or the ends of the probe. At least one verdict was read from the data and is not stated in words by the source. For some assays here: Tags and fusion partners may be left off the protein sequences shown.

In the case of “GACGCTGCCGAATTCTACCAGTGCCTTGCTAGGACATCTTTGCCCACCTGCAGGTTCACCC [EMSA ssDNA 61-mer]”, the binding result in the data set with FANCA (human) (10 nM suboptimal, 80 nM positive control, single-stranded DNA) is “binds”.
As to “GTCCTCCACCGCAGCCCACCTGCCCACCTTGTTGCTGATCTCAATCAGCTCTGGA / GCTGGCACGGTCGGATTTAAAGTTAGGGCAGGTGGGCTGCGGTGGAGGACG [splayed arm DNA]”, the binding result in the data set on FANCA + FANCG, with FANCA (human) (FANCA 10 nM suboptimal) and with FANCA + FAAP20 + FANCG was “binds” throughout.
Consider “GACGCUGCCGAAUUCUACCAGUGCCUUGCUAGGACAUCUUUGCCCACCUGCAGGUUCACCC [EMSA ssRNA 61-mer]”, for which the binding result with FANCA (human) (suboptimal FANCA) was “binds”.

The values above are taken from publication PMC10449828, “Fanconi anemia associated protein 20 (FAAP20) plays an essential role in homology-directed repair of DNA double-strand breaks”.
